# From patent US20230416760A1 (CURATORS OF THE UNIVERSITY OF MISSOURI, published 2023)
# Results are given in words; binding and its absence hold for the method and conditions named. For some assays here: In cells and extracts the contact can be indirect. Some entries that bind do so weakly or less than the wild type.
# T1: BADC3 (AT3G15690), Single hybrid motif protein, Arabidopsis thaliana (Arabidopsis thaliana)
# T1 sequence: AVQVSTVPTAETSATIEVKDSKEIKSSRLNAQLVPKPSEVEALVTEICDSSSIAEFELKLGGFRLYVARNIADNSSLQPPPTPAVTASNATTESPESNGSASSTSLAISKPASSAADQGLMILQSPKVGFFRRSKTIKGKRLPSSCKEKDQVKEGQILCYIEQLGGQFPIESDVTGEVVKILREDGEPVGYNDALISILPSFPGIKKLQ
# T2: BADC2 (AT1G52670), Single hybrid motif protein, Arabidopsis thaliana (Arabidopsis thaliana)
# T2 sequence: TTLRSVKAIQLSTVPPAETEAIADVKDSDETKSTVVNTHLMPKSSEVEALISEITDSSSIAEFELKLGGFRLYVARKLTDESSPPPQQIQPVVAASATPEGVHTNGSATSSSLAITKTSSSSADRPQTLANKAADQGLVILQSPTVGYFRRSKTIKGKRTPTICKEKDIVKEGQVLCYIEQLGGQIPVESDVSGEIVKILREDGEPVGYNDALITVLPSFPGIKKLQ
# T3: biotin carboxylase (BC) subunit of hetACCase, AT5G35360, Arabidopsis thaliana (Arabidopsis thaliana) (UniProt O04983)
# T3 sequence (looked up): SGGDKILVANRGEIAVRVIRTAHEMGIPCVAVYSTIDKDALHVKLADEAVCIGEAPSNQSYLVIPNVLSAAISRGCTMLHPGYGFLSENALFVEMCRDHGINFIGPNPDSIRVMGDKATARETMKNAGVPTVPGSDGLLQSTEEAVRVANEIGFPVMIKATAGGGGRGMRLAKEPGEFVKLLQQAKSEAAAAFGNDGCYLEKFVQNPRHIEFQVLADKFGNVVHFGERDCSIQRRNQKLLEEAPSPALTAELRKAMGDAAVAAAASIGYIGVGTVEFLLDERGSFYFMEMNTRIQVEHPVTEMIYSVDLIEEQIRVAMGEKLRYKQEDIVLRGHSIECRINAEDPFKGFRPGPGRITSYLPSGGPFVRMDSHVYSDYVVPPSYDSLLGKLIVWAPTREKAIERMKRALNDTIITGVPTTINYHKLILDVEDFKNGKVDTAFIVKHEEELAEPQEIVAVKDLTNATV
# What was measured:
# [1] = target: T1, BADC3 (AT3G15690), Single hybrid motif protein, Arabidopsis thaliana (Arabidopsis thaliana); experiment: yeast two-hybrid
# [2] = target: T2, BADC2 (AT1G52670), Single hybrid motif protein, Arabidopsis thaliana (Arabidopsis thaliana); experiment: yeast two-hybrid
# [3] = target: BADC1 (AT3G56130), biotin/lipoyl attachment domain-containing protein, Arabidopsis thaliana (Arabidopsis thaliana); experiment: intact mass analysis
# [4] = target: BADC1 (AT3G56130), biotin/lipoyl attachment domain-containing protein, Arabidopsis thaliana (Arabidopsis thaliana); experiment: intact mass analysis; monomer and dimer band on SDS-PAGE without DTT (disulfide-linked homodimer)
# [5] = target: T1, BADC3 (AT3G15690), Single hybrid motif protein, Arabidopsis thaliana (Arabidopsis thaliana); experiment: intact mass analysis
# [6] = target: T3, biotin carboxylase (BC) subunit of hetACCase, AT5G35360, Arabidopsis thaliana (Arabidopsis thaliana); experiment: co-expression in E. coli, Ni-NTA co-purification
# [7] = target: T1, BADC3 (AT3G15690), Single hybrid motif protein, Arabidopsis thaliana (Arabidopsis thaliana); experiment: intact mass analysis; monomer and dimer band on SDS-PAGE without DTT (disulfide-linked homodimer)
binding [1],binding [2],binding [3],binding [4],binding [5],binding [6],binding [7],Binder
binds,–,–,–,–,–,–,"BADC2 (AT1G52670), Single hybrid motif protein, Arabidopsis thaliana (other, His-tagged or untagged from E. coli, bait/prey fusion in yeast two-hybrid, native protein in co-IPs; also called AtBADC2) TTLRSVKAIQLSTVPPAETEAIADVKDSDETKSTVVNTHLMPKSSEVEALISEITDSSSIAEFELKLGGFRLYVARKLTDESSPPPQQIQPVVAASATPEGVHTNGSATSSSLAITKTSSSSADRPQTLANKAADQGLVILQSPTVGYFRRSKTIKGKRTPTICKEKDIVKEGQVLCYIEQLGGQIPVESDVSGEIVKILREDGEPVGYNDALITVLPSFPGIKKLQ"
binds,binds,binds,binds,–,–,–,"BADC1 (AT3G56130), biotin/lipoyl attachment domain-containing protein, Arabidopsis thaliana (other, Recombinant and yeast two-hybrid constructs were made without the transit peptide predicted by TargetP; also called AtBADC1) AKAAKSSTTTISDGSSDASVSDGKKTVRRITFPKEVEALVHEMCDETEVAVLQLKVGDFEMNLKRKIGAATNPIPVADISPTVAPPIPSEPMNKSASSAPSPSQAKPSSEKVSPFKNTSYGKPAKLAALEASGSTNYVLVTSPAVGKFQRSRTVKGKKQSPSCKEGDAIKEGQVIGYLHQLGTELPVTSDVAGEVLKLLSDDGDSVGYGDPLVAVLPSFHDINIQ"
–,–,–,–,binds,binds,binds,"BADC3 (AT3G15690), Single hybrid motif protein, Arabidopsis thaliana (protein) AVQVSTVPTAETSATIEVKDSKEIKSSRLNAQLVPKPSEVEALVTEICDSSSIAEFELKLGGFRLYVARNIADNSSLQPPPTPAVTASNATTESPESNGSASSTSLAISKPASSAADQGLMILQSPKVGFFRRSKTIKGKRLPSSCKEKDQVKEGQILCYIEQLGGQFPIESDVTGEVVKILREDGEPVGYNDALISILPSFPGIKKLQ"
